Data as given in PubChem BioAssay AID1259314 (Drosophila RNAi Screening Center, 2017)
Shown is one part, drawn at random, of about 3,100 deposited reagents. Of all reagents, 289 (9.3%) are marked active. 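Active includes both higher and lower ATP than plate average; check the z-score sign for direction.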 A number with no mark means an inactive call. A plus sign joins genes that one reagent is predicted to hit. Not given: the amount of reagent.

Purpose: 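Modifiers of manganese chloride toxicity in fly cells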 (primary screen)
Cell system: Drosophila S2R+ cells
Knock-down reagent: long dsRNA against Drosophila genes
Timing: 5 days (4 days knock-down, then 1 day metal exposure)
Challenge: manganese chloride added to 15 mM for 24 hours
Read-out: 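Cellular ATP measured by luciferase light, scaled to the plate mean, averaged across replicates and z-scored over plates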
Scale: mean ATP z-score: higher = more ATP than the plate average, more viable cells under manganese
Active means: 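Called active when the mean ATP z-score is above 1.5 or below -1.5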
Calls: active = strong ATP change, up or down; inactive = no strong ATP change

CG5880 [DRSC15906] → mean ATP z-score = 0.313
CG5880 [DRSC39828] → mean ATP z-score = -0.211
Nhe2 [DRSC03172] → mean ATP z-score = -0.69
Nhe2 [DRSC03377] → mean ATP z-score = -0.679
sut4 [DRSC07703] → mean ATP z-score = -0.387
sut4 [DRSC24885] → mean ATP z-score = -0.197
CG4101 [DRSC10400] → mean ATP z-score = 1.15
Npl4 [DRSC15615] → mean ATP z-score = -0.837
Npl4 [DRSC15616] → mean ATP z-score = -0.245
inc [DRSC17954] → mean ATP z-score = -0.294
inc [DRSC28898] → mean ATP z-score = -2.11 (active)
Nmda1 [DRSC07479] → mean ATP z-score = -0.844
Nmda1 [DRSC26357] → mean ATP z-score = 0.787
asRNA:CR43429 + Impbeta11 [DRSC07525] → mean ATP z-score = 0.742
asRNA:CR43429 + Impbeta11 [DRSC39687] → mean ATP z-score = -0.183
Vang [DRSC07570] → mean ATP z-score = -0.383

Continued (4 carried over from the part before).
Nmda1 [DRSC26357] → mean ATP z-score = 0.787
asRNA:CR43429 + Impbeta11 [DRSC07525] → mean ATP z-score = 0.742
asRNA:CR43429 + Impbeta11 [DRSC39687] → mean ATP z-score = -0.183
Vang [DRSC07570] → mean ATP z-score = -0.383
ninaA [DRSC00830] → mean ATP z-score = -0.0304
ATPsynbeta [DRSC17194] → mean ATP z-score = -1.86 (active)
mol [DRSC01431] → mean ATP z-score = -0.959
mol [DRSC23967] → mean ATP z-score = -0.206
Lcch3 [DRSC22175] → mean ATP z-score = -0.29
Or19a [DRSC20684] → mean ATP z-score = -0.144
CG44098 [DRSC12327] → mean ATP z-score = -0.908
CG44098 [DRSC23643] → mean ATP z-score = 0.587
CG44098 [DRSC24166] → mean ATP z-score = -1.13
CG14194 [DRSC19549] → mean ATP z-score = -0.587
CG9643 [DRSC00722] → mean ATP z-score = -0.663
CG9643 [DRSC27948] → mean ATP z-score = 0.218
Ptp69D [DRSC11258] → mean ATP z-score = -1.03
Ptp69D [DRSC36691] → mean ATP z-score = -0.249
Ptp69D [DRSC36692] → mean ATP z-score = -0.379
CG4332 [DRSC19890] → mean ATP z-score = 1.05
CG4332 [DRSC39702] → mean ATP z-score = 0.128
